In experiment [1] the target is T1, PIP2;1-Cub-PLV (split-ubiquitin bait, pMetYC-DEST) (Arabidopsis thaliana) (UniProt P43286).
T1 sequence: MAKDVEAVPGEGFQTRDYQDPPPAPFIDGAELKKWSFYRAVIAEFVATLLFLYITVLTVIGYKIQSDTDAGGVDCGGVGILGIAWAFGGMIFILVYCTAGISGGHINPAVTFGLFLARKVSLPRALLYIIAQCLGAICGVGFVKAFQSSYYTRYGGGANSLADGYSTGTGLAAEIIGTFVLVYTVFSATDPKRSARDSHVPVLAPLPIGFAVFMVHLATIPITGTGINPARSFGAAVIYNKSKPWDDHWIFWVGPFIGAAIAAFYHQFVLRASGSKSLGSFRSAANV
As to the kind of experiment: two-hybrid.

Amino acid sequences for entries named in this document (tags omitted). A change or cut given only in a name is not applied to a line headed by its entry.
UniProt Q9M5P2: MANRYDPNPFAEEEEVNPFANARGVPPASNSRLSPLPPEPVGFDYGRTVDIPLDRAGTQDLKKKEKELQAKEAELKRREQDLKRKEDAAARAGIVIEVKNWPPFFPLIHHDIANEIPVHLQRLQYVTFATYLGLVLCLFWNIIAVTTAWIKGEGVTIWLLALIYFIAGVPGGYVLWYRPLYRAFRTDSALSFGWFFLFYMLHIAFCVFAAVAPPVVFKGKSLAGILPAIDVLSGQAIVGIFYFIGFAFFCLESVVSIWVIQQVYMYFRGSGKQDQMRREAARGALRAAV
UniProt Q9C6X2: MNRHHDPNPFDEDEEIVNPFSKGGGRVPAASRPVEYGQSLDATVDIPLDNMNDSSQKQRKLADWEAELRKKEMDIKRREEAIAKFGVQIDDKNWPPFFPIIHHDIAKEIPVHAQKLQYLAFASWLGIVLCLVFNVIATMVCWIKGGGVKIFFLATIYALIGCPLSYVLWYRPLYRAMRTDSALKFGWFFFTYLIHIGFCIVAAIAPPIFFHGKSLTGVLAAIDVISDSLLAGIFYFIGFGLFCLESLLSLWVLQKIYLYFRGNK

Experiment [2] has as its target T2, PIP2;2-Cub-PLV (split-ubiquitin bait, pMetYC-DEST) (Arabidopsis thaliana) (UniProt P43287).
T2 sequence: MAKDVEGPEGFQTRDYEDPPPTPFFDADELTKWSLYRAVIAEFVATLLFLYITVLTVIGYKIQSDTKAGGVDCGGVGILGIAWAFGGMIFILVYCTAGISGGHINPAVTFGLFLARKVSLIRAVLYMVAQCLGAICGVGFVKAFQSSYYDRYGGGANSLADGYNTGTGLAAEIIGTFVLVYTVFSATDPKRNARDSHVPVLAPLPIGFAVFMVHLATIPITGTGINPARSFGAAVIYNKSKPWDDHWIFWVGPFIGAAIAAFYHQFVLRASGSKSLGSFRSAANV
As to the kind of experiment: two-hybrid.

Experiment [3] has as its target T3, PIP2;6-Cub-PLV (split-ubiquitin bait, pMetYC-DEST) (Arabidopsis thaliana) (UniProt Q9ZV07).
T3 sequence: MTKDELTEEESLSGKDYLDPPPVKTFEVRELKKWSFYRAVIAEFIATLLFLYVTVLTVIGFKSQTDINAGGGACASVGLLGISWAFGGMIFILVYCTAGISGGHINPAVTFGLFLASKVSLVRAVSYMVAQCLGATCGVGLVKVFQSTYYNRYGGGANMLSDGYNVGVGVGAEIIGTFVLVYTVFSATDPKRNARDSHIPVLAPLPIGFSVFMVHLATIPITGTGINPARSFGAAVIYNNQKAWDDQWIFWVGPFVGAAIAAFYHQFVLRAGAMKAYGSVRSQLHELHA
As to the kind of experiment: two-hybrid.

Experiment [4] has as its target T4, PIP2;7-Cub-PLV (split-ubiquitin bait, pMetYC-PIP2;7) (Arabidopsis thaliana) (UniProt P93004).
T4 sequence: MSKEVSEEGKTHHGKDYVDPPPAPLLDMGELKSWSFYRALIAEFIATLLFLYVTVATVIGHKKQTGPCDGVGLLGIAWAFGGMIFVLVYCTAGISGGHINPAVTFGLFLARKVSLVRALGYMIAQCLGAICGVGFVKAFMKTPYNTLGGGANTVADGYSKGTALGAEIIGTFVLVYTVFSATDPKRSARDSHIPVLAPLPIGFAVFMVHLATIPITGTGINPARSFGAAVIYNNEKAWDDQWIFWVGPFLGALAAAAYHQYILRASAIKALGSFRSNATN
The experiment is described as follows: two-hybrid.

For experiment [5], the target named is SCAMP1-GFP (pSCAMP1::SCAMP1-eGFP) (Arabidopsis thaliana) (UniProt Q9M5P2). As to the kind of experiment: FRET or BRET. (In general: BRET reads energy transfer from a luciferase to a nearby fluorophore.)
Experiment [6] concerns the target SCAMP5-Cub-PLV (split-ubiquitin bait, pMetYC-DEST) (Arabidopsis thaliana) (UniProt Q9C6X2). The experiment is described as follows: two-hybrid.

No constants are given. Whether binding was seen depends on the method and setting. Binding calls can cover weak binding; strength is not graded here. For part of these data: Binding seen in cells or lysates may run through a third protein.

As to “NubG-SCAMP5 (split-ubiquitin prey, pNX35-DEST) (from UniProt Q9C6X2)”, the binding entry in experiment [1], in experiment [2], in experiment [3] and in experiment [4] was “binds” in each case.

Take SCAMP5-mCherry (from UniProt Q9C6X2): the binding result in experiment [5] is “binds”.

B1: PIP1;2-NubA (split-ubiquitin prey, pXNubA22-DEST) (protein, UniProt Q06611 1-286)
chain: MEGKEEDVRVGANKFPERQPIGTSAQSDKDYKEPPPAPLFEPGELASWSFWRAGIAEFIATFLFLYITVLTVMGVKRSPNMCASVGIQGIAWAFGGMIFALVYCTAGISGGHINPAVTFGLFLARKLSLTRAVYYIVMQCLGAICGAGVVKGFQPKQYQALGGGANTIAHGYTKGSGLGAEIIGTFVLVYTVFSATDAKRNARDSHVPILAPLPIGFAVFLVHLATIPITGTGINPARSLGAAIIFNKDNAWDDHWVFWVGPFIGAALAALYHVIVIRAIPFKSRS
Regarding B1, the binding entry in experiment [6] is given as “binds”.

The values above are taken from doi:10.1101/2025.07.03.662988.
